Laboratory results: patent publication US20260193375A1
No constants are given. Whether binding was seen depends on the method and setting.

Chains of the proteins cited; added tags and fusions are not shown. Residues count along the entry.
UniProt P02769, residues 25-607: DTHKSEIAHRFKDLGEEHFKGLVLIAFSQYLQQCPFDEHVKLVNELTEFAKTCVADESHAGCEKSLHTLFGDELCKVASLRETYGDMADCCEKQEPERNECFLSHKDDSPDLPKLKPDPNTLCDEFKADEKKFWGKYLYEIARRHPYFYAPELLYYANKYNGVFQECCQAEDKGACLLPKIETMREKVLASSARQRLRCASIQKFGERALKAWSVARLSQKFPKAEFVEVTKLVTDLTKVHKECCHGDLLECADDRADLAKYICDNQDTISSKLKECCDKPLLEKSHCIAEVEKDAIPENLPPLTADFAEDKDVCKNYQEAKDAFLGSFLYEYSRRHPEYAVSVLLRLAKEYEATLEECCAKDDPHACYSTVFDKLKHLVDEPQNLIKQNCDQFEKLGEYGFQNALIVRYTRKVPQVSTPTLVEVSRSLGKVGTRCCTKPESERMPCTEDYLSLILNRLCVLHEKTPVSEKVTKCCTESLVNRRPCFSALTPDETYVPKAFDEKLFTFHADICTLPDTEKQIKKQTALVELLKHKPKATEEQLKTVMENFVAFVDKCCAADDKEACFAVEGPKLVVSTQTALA

Target: BSA (bovine) (UniProt P02769)
Experiment: ELISA, antigen coated on the plate, antibody as human IgG1, anti-human F(ab)2 HRPO

Row | Binder | binding
1 | anti-LY6K antibody 3063 (antibody, V domains shown) VH: EVQLVESGGGLVKPGRSLRLSCAASGFTFDDFAMHWVRQAPGKGLEWVSGLSWKGHTLGYADSVKGRFTFSRDSAKNSLYLQMNSLRAEDTALYYCAKDTRSGLDYWGQGTLVTVSS VL: DIVMTQTPLSSPVTLGQPASISCRSSQSLEHSDGNTYLSWLQQRPGQPPRLLIYKISNRFSGVPDRFSGNGAGTDFTLKISRVEAEDVGIYYCMQATEFPFTFGGGTKVEIK | no binding (tested: 10 µg/ml)
2 | anti-LY6K antibody 3520 (antibody, V domains shown) VH: QVQLVQSGSELKKPGASVKVSCKASGYTFTLYAMNWVRQAPGQGLEWMGWINTNTGNPTYAQGFTGRFVFSLDTSVSTAYLQISSLKAEDTAVYYCARTNWNSWGQGTMVTVSS VL: DIQMTQSPSSLSASVGDRVTITCQASQDISNYLHWFQQKPGKAPKLLIYDASNLETGVPSRFSGSGSGTDFTFTIFSLQPEDIATYYCQHYDNLPLTFGGGTKVEIK | no binding (tested: 10 µg/ml)
3 | anti-LY6K antibody 3741 (antibody, V domains shown) VH: EVQLVESGGGLVKPGGSLRLSCAASGFTFSSYSMNWVRQAPGKGLEWVSSISSSSNYIYYVDSVKGRFTTSRDNAKNSLYLQMNSLRAEDTAVYYCARQEATGNNYYYYYMDVWGKGTTVTVSS VL: DIQMTQSPSSLSASVGDRVTITCRASQSISNYLNWYQQNLGKAPKVLIYAASSLQSGVPSRFSGSGSGTDFTLTISSLQPEDFATYYCQQTYSTPITFGQGTRLEIK | no binding (tested: 10 µg/ml)
4 | anti-LY6K antibody 3503 (antibody, V domains shown) VH: EVQLVESGGGLVKPGGSLRLSCAASGFIFSSYSMNWVRQAPGKGLEWVSSISSSSSYIYYADSEKGRFTISRDNAKNSLYLQMNSLRAEDTAVYYCARQSTVVTSDYYYYYMDVWGKGTTVTVSS VL: DIQMTQSPSSLSASVGDRVTITCRASQSISNYLNWYQQKPGKAPNLLIYAASSLQSGVPSRFSGSGSGTDFTLTISSLQPEDFATYYCQQSYSPPITFGQGTRLEIK | no binding (tested: 10 µg/ml)
5 | anti-LY6K antibody 3082 (antibody, V domains shown) VH: EVQLVESGGGLVKPGGSLRLSCAASGFTFSSSSMNWVRQAPGKGLEWVSSISRSSYYIYYADSVEGRFTISRDNAKNSLYLQMNSLRAEDTAVYYCAKIGSSSEGVEDYYYYYYMDVWGKGTTVTVSS VL: DIQMTQSPSSLSASVGDRVTITCRASQNINSYLNWYQQKPGKAPKLLIYAASSLQSGVPSRFSGSGSGTDFTLTISSLQPEDFATYYCHQSYSTPLTFGGGTKVEIK | no binding (tested: 10 µg/ml)
6 | anti-LY6K antibody 3035 (antibody, V domains shown) VH: EVQLVESGGGLVQPGGSLKLSCAASGFTFSDSTLHWVRQASGKGLEWVGRIRSKANSYATAYAASVKGRFTISRDDSKNTAYLQMNSLKTEDTAVYYCHNWSYGYWGQGTLVTVSS VL: QTVVTQEPSLTVSPGGTVTLTCASSTGAVTSYYYPNWFQQKPGQAPRTVIYSTTNKHSWTPARFSGSLLGGKAALTLSGVLPEDEADYYCLLFYGGAYVFGTGTKVTVL | no binding (tested: 10 µg/ml)
7 | anti-LY6K antibody 3785 (antibody, V domains shown) VH: QVQLQQSGPGLVKPSQTLSLTCAISGDSVSSNSAAWNWIRQSPSRGLEWLGRTYFRSKWNNDYTLSVKNRITINPDTSKNHFSLQLNSVTPEDTAVYYCAGGGYCNRTYCPDVFDIWGQGTMVTVSS VL: DIQMTQSPSSLSASVGDRVTFTCRSSQSISSYLNWYQQKPGKAPNLLIYVASTLQSGVPSRFSGSGSGTDFTLTISSLQPEDFATYYCQQSYSIPLTFGGGTKVEIK | no binding (tested: 10 µg/ml)
8 | anti-LY6K antibody 3074 (antibody, V domains shown) VH: EVQLVESGGGLVHPGRSLRLSCAASGFTFDDYAMHWVRQAPGKGLEWVSGISWKTNKIDYADSVKGRFTTSRDNAKNSLYLQMNSLRTEDTAFYYCAKDRREMTFDIWGQGTMVTVSS VL: DIVMTQTPLSSPVTLGQPASISCRSSQSLEHSNGNTYLSWLQQRPGQPPRLLIYKISNRFSGVPDRFSGSGAGTDFTLKISRVEAEDVGIYYCMQATQFPLTFGGGTKVEIK | no binding (tested: 10 µg/ml)
9 | anti-LY6K antibody 3719 (antibody, V domains shown) VH: EVQLVESGGGLVQPGRSLRLSCTASGFTFNDYAMHWVRQAPGKGLEWVSGISWNSNNIDYADSVKGRFTISRDNAKNSLYMQMNSLRAEDTALYYCAKDGPGTTNDAFDIWGQGTMVTVSS VL: DIQMTQSPSSLSASVGDRVTITCRASHSISSYLNWYQQKPGKAPKLLIYAASSLQSGVPSRFSGSGSGTDFTLTISSLQPEDFATYYCHQGYSTPLTFGGGTKVEIK | no binding (tested: 10 µg/ml)
10 | anti-LY6K antibody 3501 (antibody, V domains shown) VH: EVQLVESGGGLVQPGRSLRLSCAASGFTFDDYAMHWVRQAPGKGLEWVSGISWNSGTIDYADSVKGRFTISRDNAKNSLYLQVNSLRAEDTALYYCAKDSPQKDYYYMDVWGKGTTVTVSS VL: DIQMTQSPSSLSASVGDRVTITCRTSQSISSYLNWYQQKPGKAPNLLIYAASSLQSGVPSRFSGSGSGTDFTLTISSLQPEDFATYYCQQSYITPITFGQGTRLEIK | no binding (tested: 10 µg/ml)
